Measured data: PubChem BioAssay AID1159578 (Peter MacCallum Cancer Centre, 2015)
Assay: 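Genome-wide hunt for genes controlling movement of lymphatic endothelial cells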 (primary screen). Cell system: human lymphatic endothelial cells. Knock-down reagent: siRNA pool against human genes, 40 nM. Timing: 48 h after transfection. Read-out: 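High-content imaging of dye-stained cells in a scratch assay measures filled wound area and nuclei per well; duplicate means given as ratio to mock and robust z-score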. Reading the numbers: migration robust z-score: higher = faster migration into the scratch; migration relative to mock: higher = more scratch area covered than mock; nuclei per well: higher = more cells in the well. Hit rule: 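Pools averaging fewer than 3300 nuclei are never called; remaining pools count as changed when migration robust z lies outside -2 to 2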. Calls: active = migration changed; inactive = no migration change, or too few cells.
The deposit covers about 18,000 reagents; below is a part drawn at random. Over the whole deposit, about 1,030 (5.7%) got an active call. 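Inactive calls also include pools with fewer than 3300 nuclei, whose migration was not assessed.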 Raw values vary from plate to plate and are shown uncorrected. A number with no mark means an inactive call. Reagents against one gene are numbered here.

Target gene	reagent	migration robust z-score	migration class with cell-count check	migration relative to mock	nuclei per well, duplicate mean
LSP1 (GeneID 4046)	1	-0.79	migration z between -2 and 2; enough cells	0.68	5832
SNX29 (GeneID 92017)	1	-1.21	migration z between -2 and 2; enough cells	0.57	6312
SNX29 (GeneID 92017)	2	0.02	migration z between -2 and 2; enough cells	0.88	6138
KCNJ4 (GeneID 3761)	1	-0.47	migration z between -2 and 2; enough cells	0.72	4568
VRK2 (GeneID 7444)	1	0.03	migration z between -2 and 2; enough cells	0.81	5254
DUSP11 (GeneID 8446)	1	0.16	migration z between -2 and 2; enough cells	0.84	5308
SERPINB8 (GeneID 5271)	1	1.43	migration z between -2 and 2; enough cells	1.25	7232
SH2B3 (GeneID 10019)	1	0.78	migration z between -2 and 2; enough cells	1.08	5110
ZNF155 (GeneID 7711)	1	0.44	migration z between -2 and 2; enough cells	1	6482
SLC41A3 (GeneID 54946)	1	0.52	migration z between -2 and 2; enough cells	0.9	4655
GANC (GeneID 2595)	1	0.18	migration z between -2 and 2; enough cells	0.84	5666
SOCS1 (GeneID 8651)	1	-0.21	migration z between -2 and 2; enough cells	0.77	5367
NT5C (GeneID 30833)	1	-2	migration z between -2 and 2; enough cells	0.42	4830
HABP2 (GeneID 3026)	1	-0.05	migration z between -2 and 2; enough cells	0.8	5567
NUDT12 (GeneID 83594)	1	1.15	migration z between -2 and 2; enough cells	1.02	5120
N4BP1 (GeneID 9683)	1	0.28	migration z between -2 and 2; enough cells	0.96	5236
GGA2 (GeneID 23062)	1	-1.17	migration z between -2 and 2; enough cells	0.58	5392
ITPA (GeneID 3704)	1	-0.64	migration z between -2 and 2; enough cells	0.72	6247
HOXA9 (GeneID 3205)	1	0.96	migration z between -2 and 2; enough cells	0.99	5512
IGSF3 (GeneID 3321)	1	1.01	migration z between -2 and 2; enough cells	1.15	6076
MTFR1 (GeneID 9650)	1	-0.36	migration z between -2 and 2; enough cells	0.8	6418
VGLL2 (GeneID 245806)	1	-2.29 (active)	migration z below -2; enough cells	0.29	3488
LTV1 (GeneID 84946)	1	-1.91	migration z between -2 and 2; enough cells	0.39	5865
XPO1 (GeneID 7514)	1	0.57	migration z between -2 and 2; enough cells	0.92	5368
NKAP (GeneID 79576)	1	0.32	migration z between -2 and 2; enough cells	0.97	6486
TSHZ2 (GeneID 128553)	1	1.66	migration z between -2 and 2; enough cells	1.31	6223
MYBPC1 (GeneID 4604)	1	0.3	migration z between -2 and 2; enough cells	0.97	5900
NCBP1 (GeneID 4686)	1	0.44	migration z between -2 and 2; enough cells	1	5186
DUSP6 (GeneID 1848)	1	-0.05	migration z between -2 and 2; enough cells	0.8	5975
DNAH2 (GeneID 146754)	1	2.12 (active)	migration z above 2; enough cells	1.44	6959
SNX12 (GeneID 29934)	1	-0.52	migration z between -2 and 2; enough cells	0.75	5192
TPH2 (GeneID 121278)	1	-0.55	migration z between -2 and 2; enough cells	0.7	5269
PCDHB16 (GeneID 57717)	1	1.09	migration z between -2 and 2; enough cells	1.17	6574
TMEM80 (GeneID 283232)	1	-0.28	migration z between -2 and 2; enough cells	0.82	5924
HIGD2A (GeneID 192286)	1	-2	migration z between -2 and 2; enough cells	0.37	7232
NDUFAF6 (GeneID 137682)	1	-0.59	migration z between -2 and 2; enough cells	0.73	6616
GALT (GeneID 2592)	1	0.48	migration z between -2 and 2; enough cells	1.01	6585
RPL10 (GeneID 6134)	1	-0.34	migration z between -2 and 2; enough cells	0.8	5106
SULT1A3 (GeneID 6818)	1	0.57	migration z between -2 and 2; enough cells	1.04	7705
HACL1 (GeneID 26061)	1	-0.39	migration z between -2 and 2; enough cells	0.73	4568
GNG2 (GeneID 54331)	1	0.19	migration z between -2 and 2; enough cells	0.93	6037
ZNF804A (GeneID 91752)	1	-0.56	migration z between -2 and 2; enough cells	0.74	4858
CFAP68 (GeneID 64776)	1	-0.28	migration z between -2 and 2; enough cells	0.82	5783
FAM111A (GeneID 63901)	1	-1.4	migration z between -2 and 2; enough cells	0.52	4849
SESTD1 (GeneID 91404)	1	1.31	migration z between -2 and 2; enough cells	1.23	5682
ZNF823 (GeneID 55552)	1	1.17	migration z between -2 and 2; enough cells	1.19	6470
PBK (GeneID 55872)	1	0.21	migration z between -2 and 2; enough cells	0.84	6553
UBQLN1 (GeneID 29979)	1	-0.98	migration z between -2 and 2; enough cells	0.63	4718
OR6B3 (GeneID 150681)	1	-0.12	migration z between -2 and 2; enough cells	0.85	5639
SLC10A6 (GeneID 345274)	1	0.83	migration z between -2 and 2; enough cells	1.1	5458
PPP3CC (GeneID 5533)	1	-4.41	under 3300 nuclei; migration not judged	-0.05	2305
GALNTL6 (GeneID 442117)	1	0.65	migration z between -2 and 2; enough cells	1.06	6626
MGLL (GeneID 11343)	1	-1.74	migration z between -2 and 2; enough cells	0.47	5180
PIGL (GeneID 9487)	1	-0.42	migration z between -2 and 2; enough cells	0.73	4295
OR10H1 (GeneID 26539)	1	0.11	migration z between -2 and 2; enough cells	0.91	4238
PDCL3 (GeneID 79031)	1	2.84 (active)	migration z above 2; enough cells	1.62	7192
AVPI1 (GeneID 60370)	1	-0.41	migration z between -2 and 2; enough cells	0.78	5782

Called active, among the entries above:
Target gene	reagent	migration robust z-score	migration class with cell-count check	migration relative to mock	nuclei per well, duplicate mean
VGLL2 (GeneID 245806)	1	-2.29 (active)	migration z below -2; enough cells	0.29	3488
DNAH2 (GeneID 146754)	1	2.12 (active)	migration z above 2; enough cells	1.44	6959
PDCL3 (GeneID 79031)	1	2.84 (active)	migration z above 2; enough cells	1.62	7192
